Laboratory results from US20110098242A1, “Methods and Compositions for Diagnosing and Treating Cervical Intraepithelial Neoplasia and Cervical Cancer” (priority 2008, published 2011).
No constants are given. Whether binding was seen depends on the method and setting. Binding seen in cells or lysates may run through a third protein. Some results given as binding are weak or reduced against the parent protein; the word gives no strength. Tags and fused reporters may be left off the sequences shown.

Chains of the proteins cited; added tags and fusions are not shown.
UniProt P03129: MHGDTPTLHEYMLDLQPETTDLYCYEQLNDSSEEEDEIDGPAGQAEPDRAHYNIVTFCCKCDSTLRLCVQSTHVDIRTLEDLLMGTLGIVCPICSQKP

Experiments:
[1] = target: T1, cystatin E/M protein (wild type, human), expressed from plasmid p3XFLAG-CMV-10 in transfected HeLa cells (human) (UniProt Q15828); assay: co-immunoprecipitation from co-transfected HeLa cells, Western blot with cystatin E/M antibody
T1 sequence: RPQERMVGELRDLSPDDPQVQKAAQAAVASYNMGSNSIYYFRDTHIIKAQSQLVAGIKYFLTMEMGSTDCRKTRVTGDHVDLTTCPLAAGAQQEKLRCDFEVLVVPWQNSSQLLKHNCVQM

[2] = target: T1, cystatin E/M protein (wild type, human), expressed from plasmid p3XFLAG-CMV-10 in transfected HeLa cells (human); assay: co-immunoprecipitation with anti-E7 antibody from co-transfected HeLa cell lysates, Western blot with cystatin E/M antibody

In the case of “HPV 16 E7 protein (from UniProt P03129 1-98)”, the binding [1] is reported as “binds” and the binding [2] is reported as “binds”.
